The source of these data is patent publication EP0180615B1 (priority 1984, dated 1995).

This series can be described thus: general procedure: Boc solid-phase peptide synthesis; chloromethylated polystyrene resin; p-Methylbenzhydrylamine (pMBHA) resin; dicyclohexylcarbodiimide; preformed symmetrical anhydride. The following applies: whole synthesis, reversed phase HPLC, acetate salt.

HELM strings list residues between dots; [ac] is acetyl, [am] amide, other brackets name non-standard units.

With “PEPTIDE1{R.S.S.C.F.G.G.R.I.D.R.I.G.A.Q.S.G.L.G.C.N.S.F.R.Y}$PEPTIDE1,PEPTIDE1,4:R3-20:R3$$$V2.0”, the “final HPLC purity” value is recorded as “minimum 97% purity”.
“PEPTIDE1{R.S.S.C.F.G.G.R.M.D.R.I.G.A.Q.S.G.L.G.C.N.S.F.R.Y}$PEPTIDE1,PEPTIDE1,4:R3-20:R3$$$V2.0”: the “final HPLC purity” value is “minimum 97% purity”.
